The other results are listed elsewhere or left out.
Legend:
Experiment in all cases: log2 fold change, soluble protein after heating vs DMSO (PISA); higher = thermal stabilisation; K562 cells, 10 uM, 30 min; active = over 0.2 and 3.5 SD of the protein, either way, in both replicates (recomputed)
bafetinib = compound: Cc1ccc(NC(=O)c2ccc(CN3CC[C@H](N(C)C)C3)c(C(F)(F)F)c2)cc1Nc1nccc(-c2cncnc2)n1 [bafetinib]
In short: (§1)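 K562 cells at 2×10^6 cells/mL were treated for 30 min with 10 μM compound, and aliquots were heated for 3 min over 48°C-58°C before pooling. Extraction used PBS with 0.5% NP-40 at 4°C, and soluble protein was the supernatant after 21,000xg for 90 min, measured by TMTpro 16plex LC-MS/MS with channel sums equalised. Thermal stability values, relative to control samples and from duplicates, are log2 fold changes.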

Sequences of proteins named here, by UniProt entry; tags and fusion partners are left off. A change or cut given only in a name is not applied to a line headed by its entry.
UniProt P20839, whole entry, looked up: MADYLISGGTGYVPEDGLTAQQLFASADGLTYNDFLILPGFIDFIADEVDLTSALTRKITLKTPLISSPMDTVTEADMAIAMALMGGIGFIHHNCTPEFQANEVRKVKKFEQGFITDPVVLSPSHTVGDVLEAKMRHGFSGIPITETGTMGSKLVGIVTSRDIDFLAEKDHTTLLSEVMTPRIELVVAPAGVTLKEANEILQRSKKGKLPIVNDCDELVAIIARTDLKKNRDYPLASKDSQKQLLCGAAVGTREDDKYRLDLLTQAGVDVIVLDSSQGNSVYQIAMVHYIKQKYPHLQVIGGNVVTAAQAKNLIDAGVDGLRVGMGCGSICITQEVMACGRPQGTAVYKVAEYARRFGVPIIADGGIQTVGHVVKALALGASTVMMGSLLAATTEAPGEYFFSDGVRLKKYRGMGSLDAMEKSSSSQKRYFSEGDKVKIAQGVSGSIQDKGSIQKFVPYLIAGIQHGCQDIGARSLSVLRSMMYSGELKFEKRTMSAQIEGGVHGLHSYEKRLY
UniProt Q13907: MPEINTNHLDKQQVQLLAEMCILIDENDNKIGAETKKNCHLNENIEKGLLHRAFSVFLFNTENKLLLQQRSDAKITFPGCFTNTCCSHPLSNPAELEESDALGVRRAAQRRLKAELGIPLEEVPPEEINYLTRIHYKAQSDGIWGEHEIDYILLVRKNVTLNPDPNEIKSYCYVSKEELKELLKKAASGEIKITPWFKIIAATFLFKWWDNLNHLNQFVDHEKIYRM
UniProt O00425, whole entry, looked up: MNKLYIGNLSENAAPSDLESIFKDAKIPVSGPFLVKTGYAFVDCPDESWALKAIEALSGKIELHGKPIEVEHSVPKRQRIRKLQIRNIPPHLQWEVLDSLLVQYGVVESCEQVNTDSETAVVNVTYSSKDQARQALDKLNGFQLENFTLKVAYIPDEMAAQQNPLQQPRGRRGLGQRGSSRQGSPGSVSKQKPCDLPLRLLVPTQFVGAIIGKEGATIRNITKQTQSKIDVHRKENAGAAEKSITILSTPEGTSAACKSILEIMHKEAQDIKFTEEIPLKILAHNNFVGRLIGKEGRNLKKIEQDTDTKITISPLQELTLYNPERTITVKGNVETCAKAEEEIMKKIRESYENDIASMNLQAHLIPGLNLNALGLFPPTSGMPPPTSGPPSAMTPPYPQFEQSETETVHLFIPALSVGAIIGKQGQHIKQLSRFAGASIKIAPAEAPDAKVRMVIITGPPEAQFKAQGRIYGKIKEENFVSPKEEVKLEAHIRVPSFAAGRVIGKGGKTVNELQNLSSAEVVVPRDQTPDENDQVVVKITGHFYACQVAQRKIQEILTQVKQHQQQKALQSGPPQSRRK
UniProt Q8TB96: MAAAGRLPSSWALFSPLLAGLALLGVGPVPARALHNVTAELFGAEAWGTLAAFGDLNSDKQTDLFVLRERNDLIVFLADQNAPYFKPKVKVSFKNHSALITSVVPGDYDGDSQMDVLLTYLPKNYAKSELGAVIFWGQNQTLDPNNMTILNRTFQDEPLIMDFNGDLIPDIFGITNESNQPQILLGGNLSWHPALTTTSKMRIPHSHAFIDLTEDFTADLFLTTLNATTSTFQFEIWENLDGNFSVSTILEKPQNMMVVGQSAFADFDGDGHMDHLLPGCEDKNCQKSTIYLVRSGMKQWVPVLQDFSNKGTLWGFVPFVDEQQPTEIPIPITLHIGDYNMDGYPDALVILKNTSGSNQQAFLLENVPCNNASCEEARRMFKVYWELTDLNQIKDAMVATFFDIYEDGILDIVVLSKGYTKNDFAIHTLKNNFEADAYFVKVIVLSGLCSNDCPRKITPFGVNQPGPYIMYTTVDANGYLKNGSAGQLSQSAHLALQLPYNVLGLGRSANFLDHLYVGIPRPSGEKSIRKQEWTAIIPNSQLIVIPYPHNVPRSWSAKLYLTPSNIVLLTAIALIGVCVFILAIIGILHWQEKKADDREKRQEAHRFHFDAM
UniProt O75874, whole entry, looked up: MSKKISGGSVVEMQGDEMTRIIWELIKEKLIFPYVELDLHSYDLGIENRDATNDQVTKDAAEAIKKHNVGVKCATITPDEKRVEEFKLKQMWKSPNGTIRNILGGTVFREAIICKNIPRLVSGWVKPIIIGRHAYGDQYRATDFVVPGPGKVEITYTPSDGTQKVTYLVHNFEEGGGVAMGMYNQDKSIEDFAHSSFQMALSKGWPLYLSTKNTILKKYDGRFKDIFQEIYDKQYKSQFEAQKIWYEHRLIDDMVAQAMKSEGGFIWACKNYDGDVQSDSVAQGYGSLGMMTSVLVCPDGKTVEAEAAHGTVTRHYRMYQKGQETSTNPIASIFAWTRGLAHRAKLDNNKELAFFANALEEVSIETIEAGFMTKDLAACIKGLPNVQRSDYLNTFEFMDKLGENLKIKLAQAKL
UniProt Q86U28: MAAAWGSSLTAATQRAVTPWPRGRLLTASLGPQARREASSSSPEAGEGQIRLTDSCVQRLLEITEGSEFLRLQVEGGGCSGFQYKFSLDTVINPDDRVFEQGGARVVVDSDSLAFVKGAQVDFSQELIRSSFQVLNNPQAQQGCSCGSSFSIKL
UniProt Q5TA45, whole entry, looked up: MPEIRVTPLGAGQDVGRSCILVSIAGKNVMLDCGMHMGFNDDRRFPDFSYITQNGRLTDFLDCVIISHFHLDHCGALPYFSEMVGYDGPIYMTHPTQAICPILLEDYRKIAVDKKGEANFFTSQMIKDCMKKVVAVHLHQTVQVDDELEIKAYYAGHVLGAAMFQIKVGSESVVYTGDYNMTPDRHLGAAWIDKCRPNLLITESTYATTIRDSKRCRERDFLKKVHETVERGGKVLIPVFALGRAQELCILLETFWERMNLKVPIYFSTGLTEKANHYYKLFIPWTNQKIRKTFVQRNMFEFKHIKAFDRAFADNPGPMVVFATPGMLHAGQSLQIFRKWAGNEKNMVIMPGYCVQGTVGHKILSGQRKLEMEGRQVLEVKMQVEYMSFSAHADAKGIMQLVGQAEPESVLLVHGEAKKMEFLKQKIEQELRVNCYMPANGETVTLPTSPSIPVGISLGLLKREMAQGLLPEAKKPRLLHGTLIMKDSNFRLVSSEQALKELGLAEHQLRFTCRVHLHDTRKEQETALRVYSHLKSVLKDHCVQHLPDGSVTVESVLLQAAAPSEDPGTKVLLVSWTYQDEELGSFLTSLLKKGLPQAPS
UniProt Q13123, whole entry, looked up: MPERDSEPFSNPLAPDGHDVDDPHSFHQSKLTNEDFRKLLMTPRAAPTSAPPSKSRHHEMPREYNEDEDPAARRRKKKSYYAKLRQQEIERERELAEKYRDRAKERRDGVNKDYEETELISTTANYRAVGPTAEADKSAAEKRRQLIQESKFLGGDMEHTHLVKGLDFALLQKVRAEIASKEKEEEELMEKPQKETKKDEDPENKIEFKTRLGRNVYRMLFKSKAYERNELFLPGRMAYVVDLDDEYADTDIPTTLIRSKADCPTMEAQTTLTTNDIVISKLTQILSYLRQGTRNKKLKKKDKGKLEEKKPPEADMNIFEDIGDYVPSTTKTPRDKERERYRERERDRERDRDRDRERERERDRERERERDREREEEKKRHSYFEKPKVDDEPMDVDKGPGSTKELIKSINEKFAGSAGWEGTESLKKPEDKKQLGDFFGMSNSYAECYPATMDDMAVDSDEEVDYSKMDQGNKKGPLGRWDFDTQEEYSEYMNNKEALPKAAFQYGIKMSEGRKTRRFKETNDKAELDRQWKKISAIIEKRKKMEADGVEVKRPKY
UniProt O43837: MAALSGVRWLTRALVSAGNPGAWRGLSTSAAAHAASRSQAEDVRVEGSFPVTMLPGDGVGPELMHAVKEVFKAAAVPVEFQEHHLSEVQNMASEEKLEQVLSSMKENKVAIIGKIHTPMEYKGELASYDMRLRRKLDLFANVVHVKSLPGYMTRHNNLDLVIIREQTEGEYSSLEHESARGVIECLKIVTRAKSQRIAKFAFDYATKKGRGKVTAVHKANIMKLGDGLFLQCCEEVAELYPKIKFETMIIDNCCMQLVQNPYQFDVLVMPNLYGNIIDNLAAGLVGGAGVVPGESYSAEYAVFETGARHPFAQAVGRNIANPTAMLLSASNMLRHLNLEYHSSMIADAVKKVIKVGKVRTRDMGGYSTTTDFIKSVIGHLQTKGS
UniProt Q9NVH2, whole entry, looked up: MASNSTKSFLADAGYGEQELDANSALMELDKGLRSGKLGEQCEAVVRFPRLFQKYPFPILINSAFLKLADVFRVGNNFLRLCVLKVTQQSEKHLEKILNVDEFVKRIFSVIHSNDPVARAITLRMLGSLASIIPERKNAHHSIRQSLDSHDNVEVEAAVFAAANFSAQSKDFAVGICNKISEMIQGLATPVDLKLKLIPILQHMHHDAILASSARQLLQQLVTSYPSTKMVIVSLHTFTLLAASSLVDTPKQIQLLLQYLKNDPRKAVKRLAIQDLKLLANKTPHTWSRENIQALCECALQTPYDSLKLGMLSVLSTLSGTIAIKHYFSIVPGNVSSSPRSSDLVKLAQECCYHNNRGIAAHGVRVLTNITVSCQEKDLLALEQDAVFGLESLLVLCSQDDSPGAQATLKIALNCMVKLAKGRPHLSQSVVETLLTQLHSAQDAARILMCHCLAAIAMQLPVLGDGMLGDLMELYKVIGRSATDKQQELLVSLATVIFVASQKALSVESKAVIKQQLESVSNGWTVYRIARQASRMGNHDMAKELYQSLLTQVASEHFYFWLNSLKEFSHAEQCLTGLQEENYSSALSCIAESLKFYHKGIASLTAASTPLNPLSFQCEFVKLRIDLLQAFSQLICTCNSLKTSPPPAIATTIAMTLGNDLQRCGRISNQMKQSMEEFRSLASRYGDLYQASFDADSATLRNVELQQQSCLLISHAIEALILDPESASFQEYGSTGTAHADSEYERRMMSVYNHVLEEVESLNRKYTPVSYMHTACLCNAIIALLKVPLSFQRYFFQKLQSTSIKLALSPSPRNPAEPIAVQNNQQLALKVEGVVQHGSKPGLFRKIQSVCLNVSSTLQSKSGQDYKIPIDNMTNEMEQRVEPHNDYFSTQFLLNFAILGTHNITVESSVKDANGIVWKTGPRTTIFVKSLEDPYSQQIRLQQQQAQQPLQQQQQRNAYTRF
UniProt Q13576: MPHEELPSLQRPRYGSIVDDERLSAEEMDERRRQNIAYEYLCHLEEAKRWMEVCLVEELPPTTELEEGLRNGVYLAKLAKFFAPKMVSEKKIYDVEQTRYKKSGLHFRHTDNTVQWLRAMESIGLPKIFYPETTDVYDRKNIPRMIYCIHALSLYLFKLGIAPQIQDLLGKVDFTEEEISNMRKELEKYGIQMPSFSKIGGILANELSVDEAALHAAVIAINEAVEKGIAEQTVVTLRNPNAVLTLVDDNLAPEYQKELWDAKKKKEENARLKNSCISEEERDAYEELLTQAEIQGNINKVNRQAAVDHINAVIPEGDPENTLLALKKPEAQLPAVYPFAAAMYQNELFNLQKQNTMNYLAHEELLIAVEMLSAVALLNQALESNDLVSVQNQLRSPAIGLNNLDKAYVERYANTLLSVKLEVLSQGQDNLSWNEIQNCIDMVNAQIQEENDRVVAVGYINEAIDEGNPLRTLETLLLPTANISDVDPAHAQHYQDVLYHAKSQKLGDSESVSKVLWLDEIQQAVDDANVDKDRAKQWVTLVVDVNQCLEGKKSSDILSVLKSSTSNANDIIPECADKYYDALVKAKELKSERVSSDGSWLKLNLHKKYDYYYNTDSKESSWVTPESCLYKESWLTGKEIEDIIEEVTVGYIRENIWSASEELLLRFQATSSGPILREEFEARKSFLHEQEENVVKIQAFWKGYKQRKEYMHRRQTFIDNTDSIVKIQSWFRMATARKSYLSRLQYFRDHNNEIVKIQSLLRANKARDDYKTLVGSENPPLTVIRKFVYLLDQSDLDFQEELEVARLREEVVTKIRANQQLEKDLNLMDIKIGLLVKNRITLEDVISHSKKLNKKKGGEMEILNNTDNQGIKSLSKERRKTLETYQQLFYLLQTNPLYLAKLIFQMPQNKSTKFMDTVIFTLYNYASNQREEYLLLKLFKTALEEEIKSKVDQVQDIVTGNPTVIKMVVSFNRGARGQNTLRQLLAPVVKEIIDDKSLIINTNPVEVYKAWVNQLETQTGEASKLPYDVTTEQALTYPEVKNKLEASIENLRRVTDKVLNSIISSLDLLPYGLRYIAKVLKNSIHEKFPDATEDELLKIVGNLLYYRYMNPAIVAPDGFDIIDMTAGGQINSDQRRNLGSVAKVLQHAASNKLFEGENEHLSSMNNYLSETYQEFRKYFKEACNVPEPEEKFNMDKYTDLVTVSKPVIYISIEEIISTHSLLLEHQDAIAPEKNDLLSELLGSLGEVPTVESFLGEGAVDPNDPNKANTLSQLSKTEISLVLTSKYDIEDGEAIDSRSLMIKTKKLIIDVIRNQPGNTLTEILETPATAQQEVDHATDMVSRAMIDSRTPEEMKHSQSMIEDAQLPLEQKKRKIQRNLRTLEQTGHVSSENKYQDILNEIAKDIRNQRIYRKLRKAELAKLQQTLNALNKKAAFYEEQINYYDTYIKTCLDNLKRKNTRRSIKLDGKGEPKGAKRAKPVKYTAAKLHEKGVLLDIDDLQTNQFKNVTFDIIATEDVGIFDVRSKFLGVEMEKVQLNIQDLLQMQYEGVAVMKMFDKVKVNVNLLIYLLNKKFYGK

[1] = compound: Cc1cccc(CC(=O)N2CCc3c2ccc(-c2cn(C)c4ncnc(N)c24)c3F)n1
In short: as §1

nilotinib = compound: Cc1cn(-c2cc(NC(=O)c3ccc(C)c(Nc4nccc(-c5cccnc5)n4)c3)cc(C(F)(F)F)c2)cn1 [nilotinib]
In short: as §1

[2] = compound: Cc1nc(Nc2n[nH]c3c2CN(C(=O)N[C@H](CN(C)C)c2ccccc2)C3(C)C)c2sccc2n1
In short: as §1

dasatinib = compound: Cc1nc(Nc2ncc(C(=O)Nc3c(C)cccc3Cl)s2)cc(N2CCN(CCO)CC2)n1 [dasatinib]
In short: as §1

[3] = compound: Cc1ncc(-c2ccnc(Nc3ccc(S(C)(=O)=O)cc3)n2)n1C(C)C
In short: as §1

[4] = compound: Cn1cc(-c2ccc3c(c2)CCN3C(=O)Cc2cccc(C(F)(F)F)c2)c2c(N)ncnc21
In short: as §1

[5] = compound: Cn1cc(-c2ccc3nnc(C(F)(F)c4ccc5ncccc5c4)n3n2)cn1
In short: as §1

tipifarnib = compound: Cn1cncc1[C@@](N)(c1ccc(Cl)cc1)c1ccc2c(c1)c(-c1cccc(Cl)c1)cc(=O)n2C [tipifarnib]
In short: as §1

mubritinib = compound: FC(F)(F)c1ccc(/C=C/c2nc(COc3ccc(CCCCn4ccnn4)cc3)co2)cc1 [mubritinib]
In short: as §1

[6] = compound: NC(=O)Nc1cc(-c2cccc(F)c2)sc1C(=O)N[C@H]1CCCNC1
In short: as §1

[7] = compound: NC(=O)c1cnc(N[C@@H]2CCCC[C@@H]2N)nc1Nc1cccc(-n2nccn2)c1
In short: as §1

[8] = compound: NC1(c2ccc(-c3nc4ccn5c(=O)[nH]nc5c4cc3-c3ccccc3)cc2)CCC1
In short: as §1

[9] = compound: NCC(=O)Nc1ccc(-n2nc(C(F)(F)F)cc2-c2ccc3c(ccc4ccccc43)c2)cc1
In short: as §1

entinostat = compound: Nc1ccccc1NC(=O)c1ccc(CNC(=O)OCc2cccnc2)cc1 [entinostat]
In short: as §1

vorinostat = compound: O=C(CCCCCCC(=O)Nc1ccccc1)NO [vorinostat]
In short: as §1

citarinostat = compound: O=C(CCCCCCNC(=O)c1cnc(N(c2ccccc2)c2ccccc2Cl)nc1)NO [citarinostat]
In short: as §1

silmitasertib = compound: O=C(O)c1ccc2c(c1)nc(Nc1cccc(Cl)c1)c1ccncc12 [silmitasertib]
In short: as §1

[10] = compound: O=C1NC(=O)C(c2cnc3ccccn23)=C1c1cn2c3c(cc(F)cc13)CN(C(=O)N1CCCCC1)CC2
In short: as §1

[11] = compound: c1cc(OCCN2CCCCC2)cc(-c2n[nH]c3ccc(-c4nnc[nH]4)cc23)c1
In short: as §1

| Target | log2 fold change (bafetinib) | log2 fold change [1] | log2 fold change (nilotinib) | log2 fold change [2] | log2 fold change (dasatinib) | log2 fold change [3] | log2 fold change [4] | log2 fold change [5] | log2 fold change (tipifarnib) | log2 fold change (mubritinib) | log2 fold change [6] | log2 fold change [7] | log2 fold change [8] | log2 fold change [9] | log2 fold change (entinostat) | log2 fold change (vorinostat) | log2 fold change (citarinostat) | log2 fold change (silmitasertib) | log2 fold change [10] | log2 fold change [11] |
| --- | --- | --- | --- | --- | --- | --- | --- | --- | --- | --- | --- | --- | --- | --- | --- | --- | --- | --- | --- | --- |
| IMPDH1 isoform 6 (UniProt P20839) | inactive: 0.063 | inactive: 0.033 | inactive: -0.037 | inactive: 0.043 | inactive: 0.057 | inactive: -0.024 | inactive: -0.175 | inactive: 0.011 | inactive: 0.084 | inactive: -0.056 | inactive: 0.033 | inactive: 0.008 | inactive: 0.012 | inactive: 0.054 | inactive: -0.012 | inactive: -0.015 | inactive: -0.006 | inactive: -0.024 | inactive: 0.004 | inactive: -0.059 |
| IDI1 isoform 2 (UniProt Q13907) | inactive: -0.019 | inactive: -0.038 | inactive: 0.049 | inactive: 0.022 | inactive: 0.002 | inactive: -0.01 | inactive: 0.096 | inactive: -0.012 | inactive: 0.018 | inactive: 0.054 | inactive: -0.062 | inactive: 0.01 | inactive: -0.038 | inactive: 0.024 | inactive: -0.03 | inactive: 0.008 | inactive: -0.017 | inactive: 0.078 | inactive: -0.066 | inactive: 0.035 |
| IGF2BP3 (UniProt O00425) | inactive: 0.232 | inactive: -0.016 | inactive: 0.037 | inactive: -0.239 | inactive: 0.028 | inactive: -0.04 | inactive: -0.285 | inactive: -0.239 | inactive: -0.028 | inactive: -0.252 | inactive: 0.038 | inactive: 0.014 | inactive: 0.305 | inactive: 0.087 | inactive: 0.04 | inactive: 0.053 | inactive: 0.026 | inactive: 0.245 | inactive: 0.352 | inactive: -0.148 |
| ITFG1 (UniProt Q8TB96) | inactive: -0.057 | inactive: -0.003 | inactive: 0.065 | inactive: -0.033 | inactive: -0.28 | inactive: 0.023 | inactive: 0.025 | inactive: -0.01 | inactive: 0.017 | inactive: 0.011 | inactive: -0.044 | inactive: 0.023 | inactive: -0.075 | inactive: 0.014 | inactive: -0.008 | inactive: -0.013 | inactive: -0.15 | inactive: 0.081 | inactive: -0.105 | inactive: -0.081 |
| IRAK4 (UniProt Q9NWZ3) | inactive: -0.047 | active: 0.236 | inactive: -0.089 | inactive: -0.047 | inactive: -0.143 | inactive: -0.01 | inactive: 0.011 | inactive: 0.035 | inactive: -0.116 | inactive: -0.031 | active: 0.349 | inactive: -0.088 | active: -0.281 | inactive: -0.008 | inactive: 0.053 | inactive: 0.05 | inactive: 0.002 | inactive: 0.027 | inactive: -0.024 | inactive: -0.019 |
| IDH1 (UniProt O75874) | inactive: -0.02 | inactive: 0.002 | inactive: 0.002 | inactive: 0.017 | inactive: 0.057 | inactive: -0.009 | inactive: 0.008 | inactive: -0.019 | inactive: 0.008 | inactive: -0.018 | inactive: 0.033 | inactive: 0.013 | inactive: -0.007 | inactive: 0.013 | inactive: -0.013 | inactive: -0.004 | inactive: 0.012 | inactive: 0.006 | inactive: -0.044 | inactive: -0.034 |
| IPO9 (UniProt Q96P70) | inactive: 0.019 | inactive: 0.031 | inactive: -0.016 | inactive: -0.06 | inactive: 0.04 | inactive: 0.011 | inactive: -0.069 | inactive: -0.06 | inactive: -0.084 | inactive: -0.005 | inactive: 0.059 | inactive: -0.072 | inactive: -0.07 | inactive: 0.003 | inactive: 0.022 | inactive: 0.041 | inactive: 0.061 | inactive: 0.164 | inactive: 0.048 | inactive: -0.035 |
| IPO11 isoform 2 (UniProt Q9UI26) | inactive: -0.056 | inactive: 0.045 | inactive: 0.012 | inactive: -0.03 | inactive: -0.049 | inactive: 0.039 | inactive: -0.008 | inactive: -0.029 | inactive: -0.132 | inactive: 0.069 | inactive: -0.004 | inactive: -0.074 | inactive: -0.113 | inactive: -0.039 | inactive: 0.022 | inactive: 0.027 | inactive: 0.048 | inactive: 0.032 | inactive: -0.027 | inactive: 0.005 |
| IMPDH2 (UniProt P12268) | inactive: 0.088 | inactive: 0.051 | inactive: -0.031 | inactive: 0.035 | inactive: 0.045 | inactive: -0.015 | inactive: -0.104 | inactive: -0.006 | inactive: 0.104 | inactive: -0.045 | inactive: -0.027 | inactive: 0.018 | inactive: 0.013 | inactive: 0.106 | inactive: -0.036 | inactive: 0.02 | inactive: 0.001 | inactive: -0.007 | inactive: 0.028 | inactive: -0.09 |
| ISCA2 (UniProt Q86U28) | inactive: -0.041 | inactive: -0.023 | inactive: 0.006 | inactive: 0.011 | inactive: -0.031 | inactive: -0.02 | inactive: 0.082 | inactive: 0.06 | inactive: 0.063 | inactive: 0.004 | inactive: -0.044 | inactive: -0.072 | inactive: -0.113 | inactive: -0.065 | inactive: 0 | inactive: 0.039 | inactive: 0.033 | inactive: -0.025 | inactive: -0.112 | inactive: -0.033 |
| INTS11 (UniProt Q5TA45) | inactive: -0.006 | inactive: 0.019 | inactive: -0.013 | inactive: 0.016 | inactive: -0.018 | inactive: -0.01 | inactive: -0.008 | inactive: 0.004 | inactive: 0.007 | inactive: 0.044 | inactive: 0.024 | inactive: 0.001 | inactive: -0.046 | inactive: -0.002 | inactive: 0.024 | inactive: -0.056 | inactive: 0.06 | inactive: 0.001 | inactive: -0.107 | inactive: 0 |
| IMPA1 isoform 3 (UniProt P29218) | inactive: -0.013 | inactive: 0 | inactive: -0.007 | inactive: 0.022 | inactive: 0.066 | inactive: -0.003 | inactive: 0 | inactive: 0.018 | inactive: 0.006 | inactive: 0.013 | inactive: -0.006 | inactive: 0.012 | inactive: -0.013 | inactive: 0.021 | inactive: -0.032 | inactive: 0.009 | inactive: -0.002 | inactive: -0.022 | inactive: 0.005 | inactive: 0.016 |
| IK (UniProt Q13123) | inactive: 0.013 | inactive: -0.01 | inactive: -0.062 | inactive: -0.067 | inactive: -0.025 | inactive: 0.037 | inactive: -0.007 | inactive: -0.109 | inactive: 0.003 | inactive: -0.067 | inactive: -0.016 | inactive: 0.119 | inactive: 0.06 | inactive: -0.08 | inactive: 0.008 | inactive: 0.026 | inactive: -0.235 | inactive: 0.132 | inactive: 0.017 | inactive: -0.078 |
| IDH3B (UniProt O43837) | inactive: 0.012 | inactive: 0.057 | inactive: -0.061 | inactive: 0.017 | inactive: -0.007 | inactive: -0.032 | inactive: 0.039 | inactive: 0.004 | inactive: -0.045 | inactive: 0.054 | inactive: -0.097 | inactive: -0.006 | inactive: -0.05 | inactive: 0.007 | inactive: -0.006 | inactive: -0.018 | inactive: 0.023 | inactive: -0.032 | inactive: -0.082 | inactive: 0.014 |
| INTS7 (UniProt Q9NVH2) | inactive: 0.02 | inactive: 0.033 | inactive: -0.054 | inactive: -0.025 | inactive: -0.109 | inactive: 0.114 | inactive: -0.021 | inactive: 0.017 | inactive: -0.132 | inactive: -0.123 | inactive: -0.076 | inactive: 0.037 | inactive: 0.001 | inactive: -0.045 | inactive: -0.095 | inactive: 0.049 | inactive: -0.007 | inactive: 0.055 | inactive: 0.092 | inactive: 0.01 |
| IQGAP2 (UniProt Q13576) | inactive: 0.054 | inactive: 0.074 | inactive: -0.063 | inactive: -0.152 | inactive: -0.356 | inactive: 0.017 | inactive: -0.015 | inactive: 0.05 | inactive: -0.167 | inactive: 0.034 | inactive: -0.022 | inactive: 0.005 | inactive: -0.118 | inactive: -0.171 | inactive: 0.084 | inactive: 0.166 | inactive: 0.094 | inactive: 0.012 | inactive: 0.017 | inactive: -0.029 |

Not a retest: entries from further up.

| Target | log2 fold change (bafetinib) | log2 fold change [1] | log2 fold change (nilotinib) | log2 fold change [2] | log2 fold change (dasatinib) | log2 fold change [3] | log2 fold change [4] | log2 fold change [5] | log2 fold change (tipifarnib) | log2 fold change (mubritinib) | log2 fold change [6] | log2 fold change [7] | log2 fold change [8] | log2 fold change [9] | log2 fold change (entinostat) | log2 fold change (vorinostat) | log2 fold change (citarinostat) | log2 fold change (silmitasertib) | log2 fold change [10] | log2 fold change [11] |
| --- | --- | --- | --- | --- | --- | --- | --- | --- | --- | --- | --- | --- | --- | --- | --- | --- | --- | --- | --- | --- |
| ISCA2 (UniProt Q86U28) | inactive: -0.041 | inactive: -0.023 | inactive: 0.006 | inactive: 0.011 | inactive: -0.031 | inactive: -0.02 | inactive: 0.082 | inactive: 0.06 | inactive: 0.063 | inactive: 0.004 | inactive: -0.044 | inactive: -0.072 | inactive: -0.113 | inactive: -0.065 | inactive: 0 | inactive: 0.039 | inactive: 0.033 | inactive: -0.025 | inactive: -0.112 | inactive: -0.033 |
| INTS11 (UniProt Q5TA45) | inactive: -0.006 | inactive: 0.019 | inactive: -0.013 | inactive: 0.016 | inactive: -0.018 | inactive: -0.01 | inactive: -0.008 | inactive: 0.004 | inactive: 0.007 | inactive: 0.044 | inactive: 0.024 | inactive: 0.001 | inactive: -0.046 | inactive: -0.002 | inactive: 0.024 | inactive: -0.056 | inactive: 0.06 | inactive: 0.001 | inactive: -0.107 | inactive: 0 |

— the supplement of paper PMC10849652
